Results reported in patent US20180200257A1, “METHODS FOR THE TREATMENT OF INFLAMMATORY DISORDERS” (Galapagos NV, priority 2015, published 2018).
This continues a long series; more values of the same kind are listed elsewhere.

Tested on: subjects with moderately to severely active RA who have an inadequate response to methotrexate (MTX)
Assay: Study 1 (add-on to MTX) - Creatinine levels
Type: in vivo, human
Procedure: Double-blind, placebo-controlled add on study in subjects with moderately to severely active RA who have an inadequate response to methotrexate (MTX) (oral or parenteral).
595 subjects randomized to one of 6 dose regimens of Compound 1 (dosed as [Compound 1:HCl:3H2O]) (3 dose levels administered either once or twice daily) or placebo on top of each subject's stable dose of MTX.
Compound 1 (dosed as [Compound 1:HCl:3H2O]) is dosed for twelve weeks once daily (q.d.) (50 mg, 100 mg or 200 mg) or twice daily (b.i.d.) (25 mg, 50 mg or 100 mg); or placebo.
At Week 12, the subjects on placebo who have not achieved 20% improvement in swollen joint count (SJC66) and tender joint count (TJC68) are re-randomized automatically to receive Compound 1 (dosed as a [Compound 1:HCl:3H2O]) either at 100 mg q.d. or 50 mg b.i.d. doses in a blinded fashion; subjects on 50 mg q.d. who have not achieved 20% improvement in SJC66 and TJC68 will be assigned to 100 mg q.d. and subjects on 25 mg b.i.d. that have not achieved a 20% improvement in SJC66 and TJC68 will be assigned to 50 mg b.i.d. Subjects who switch treatment at week 12 are handled as if they discontinued at week 12 for the purpose of statistical analysis, whereas subjects in the other groups will maintain their randomized treatment until Week 24.
Creatinine levels determination is available at Quest Diagnostics, Clinical Trials, Quest House, 125-135 Staines Road, Hounslow, Middlesex, TW3 3JB, United Kingdom under Catalogue n# 82565. For Study 3, the data are obtained at BARC Europe, 3B,Industrie Park, Zwijnaarde, B-9052 Ghent, Belgium.
The Enzymatic method is based on the determination of sarcosine after conversion of creatinine with the aid of creatininase, creatinase, and sarcosine oxidase. The liberated hydrogen peroxide reacts with 4-aminophenazone and HTIB to form a quinone imine chromogen. The reaction is catalyzed by peroxidase. The color intensity is directly proportional to concentration of creatinine present and can be measured photometrically.

[1] = continued 100 mg q.d. (N = 85), week 8
[2] = continued 100 mg q.d. (N = 85), week 12
[3] = continued 100 mg q.d. (N = 85), week 16
[4] = continued 100 mg q.d. (N = 85), week 20
[5] = continued 100 mg q.d. (N = 85), week 24
[6] = continued 200 mg q.d. (N = 86), week 0
[7] = continued 200 mg q.d. (N = 86), week 1
[8] = continued 200 mg q.d. (N = 86), week 2
[9] = continued 200 mg q.d. (N = 86), week 4
[10] = continued 200 mg q.d. (N = 86), week 8
[11] = continued 200 mg q.d. (N = 86), week 12
[12] = continued 200 mg q.d. (N = 86), week 16
[13] = continued 200 mg q.d. (N = 86), week 20
[14] = continued 200 mg q.d. (N = 86), week 24
[15] = increased from 25 mg b.i.d. to 50 mg b.i.d. at 12 weeks (N = 17), week 0
[16] = increased from 25 mg b.i.d. to 50 mg b.i.d. at 12 weeks (N = 17), week 1
[17] = increased from 25 mg b.i.d. to 50 mg b.i.d. at 12 weeks (N = 17), week 2
[18] = increased from 25 mg b.i.d. to 50 mg b.i.d. at 12 weeks (N = 17), week 4
[19] = increased from 25 mg b.i.d. to 50 mg b.i.d. at 12 weeks (N = 17), week 8
[20] = increased from 25 mg b.i.d. to 50 mg b.i.d. at 12 weeks (N = 17), week 12
[21] = increased from 25 mg b.i.d. to 50 mg b.i.d. at 12 weeks (N = 17), week 16
[22] = increased from 25 mg b.i.d. to 50 mg b.i.d. at 12 weeks (N = 17), week 20
[23] = increased from 25 mg b.i.d. to 50 mg b.i.d. at 12 weeks (N = 17), week 24
[24] = increased from 50 mg q.d. to 100 mg q.d. at 12 weeks (N = 19), week 0
[25] = increased from 50 mg q.d. to 100 mg q.d. at 12 weeks (N = 19), week 1
[26] = increased from 50 mg q.d. to 100 mg q.d. at 12 weeks (N = 19), week 2
[27] = increased from 50 mg q.d. to 100 mg q.d. at 12 weeks (N = 19), week 4
[28] = increased from 50 mg q.d. to 100 mg q.d. at 12 weeks (N = 19), week 8
[29] = increased from 50 mg q.d. to 100 mg q.d. at 12 weeks (N = 19), week 12
[30] = increased from 50 mg q.d. to 100 mg q.d. at 12 weeks (N = 19), week 16
[31] = increased from 50 mg q.d. to 100 mg q.d. at 12 weeks (N = 19), week 20
[32] = increased from 50 mg q.d. to 100 mg q.d. at 12 weeks (N = 19), week 24
[33] = placebo switched to 100 mg q.d. at week 12 (N = 15), week 16
[34] = placebo switched to 100 mg q.d. at week 12 (N = 15), week 20
[35] = placebo switched to 100 mg q.d. at week 12 (N = 15), week 24

Structure (SMILES): O=C(Nc1nc2cccc(-c3ccc(CN4CCS(=O)(=O)CC4)cc3)n2n1)C1CC1 [Compound 1, cyclopropanecarboxylic acid {5-[4-(1,1-dioxo-thiomorpholin-4-ylmethyl)-phenyl]-[1,2,4]triazolo[1,5-a]pyridin-2-yl}-amide]
- Creatinine Mean percentage CFB (continued 100 mg q.d. (N = 85), week 4): 3.5%
- Creatinine Mean CFB [1]: 1.9 µmol/L
- Creatinine Mean percentage CFB [1]: 3.8%
- Creatinine Mean CFB [2]: 3.8 µmol/L
- Creatinine Mean percentage CFB [2]: 6.8%
- Creatinine Mean CFB [3]: 2.3 µmol/L
- Creatinine Mean percentage CFB [3]: 4.8%
- Creatinine Mean CFB [4]: 2.9 µmol/L
- Creatinine Mean percentage CFB [4]: 5.4%
- Creatinine Mean CFB [5]: 1.5 µmol/L
- Creatinine Mean percentage CFB [5]: 3.8%
- Creatinine Mean CFB [6]: 0.0 µmol/L
- Creatinine Mean percentage CFB [6]: 0.0%
- Creatinine Mean CFB [7]: 3.0 µmol/L
- Creatinine Mean percentage CFB [7]: 5.7%
- Creatinine Mean CFB [8]: 3.1 µmol/L
- Creatinine Mean percentage CFB [8]: 5.8%
- Creatinine Mean CFB [9]: 3.7 µmol/L
- Creatinine Mean percentage CFB [9]: 7.0%
- Creatinine Mean CFB [10]: 4.1 µmol/L
- Creatinine Mean percentage CFB [10]: 7.4%
- Creatinine Mean CFB [11]: 4.1 µmol/L
- Creatinine Mean percentage CFB [11]: 7.7%
- Creatinine Mean CFB [12]: 4.8 µmol/L
- Creatinine Mean percentage CFB [12]: 8.7%
- Creatinine Mean CFB [13]: 4.6 µmol/L
- Creatinine Mean percentage CFB [13]: 8.5%
- Creatinine Mean CFB [14]: 3.2 µmol/L
- Creatinine Mean percentage CFB [14]: 6.0%
- Creatinine Mean CFB [15]: 0.0 µmol/L
- Creatinine Mean percentage CFB [15]: 0.0%
- Creatinine Mean CFB [16]: 0.4 µmol/L
- Creatinine Mean percentage CFB [16]: 0.8%
- Creatinine Mean CFB [17]: 0.2 µmol/L
- Creatinine Mean percentage CFB [17]: 0.3%
- Creatinine Mean CFB [18]: -0.6 µmol/L
- Creatinine Mean percentage CFB [18]: −0.4%
- Creatinine Mean CFB [19]: 1.8 µmol/L
- Creatinine Mean percentage CFB [19]: 3.9%
- Creatinine Mean CFB [20]: 0.2 µmol/L
- Creatinine Mean percentage CFB [20]: 0.4%
- Creatinine Mean CFB [21]: 3.8 µmol/L
- Creatinine Mean percentage CFB [21]: 7.6%
- Creatinine Mean CFB [22]: 1.7 µmol/L
- Creatinine Mean percentage CFB [22]: 4.8%
- Creatinine Mean CFB [23]: 0.5 µmol/L
- Creatinine Mean percentage CFB [23]: 1.4%
- Creatinine Mean CFB [24]: 0.0 µmol/L
- Creatinine Mean percentage CFB [24]: 0.0%
- Creatinine Mean CFB [25]: 0.7 µmol/L
- Creatinine Mean percentage CFB [25]: 1.5%
- Creatinine Mean CFB [26]: 1.8 µmol/L
- Creatinine Mean percentage CFB [26]: 3.0%
- Creatinine Mean CFB [27]: 2.5 µmol/L
- Creatinine Mean percentage CFB [27]: 3.9%
- Creatinine Mean CFB [28]: 2.6 µmol/L
- Creatinine Mean percentage CFB [28]: 4.1%
- Creatinine Mean CFB [29]: 0.6 µmol/L
- Creatinine Mean percentage CFB [29]: 1.9%
- Creatinine Mean CFB [30]: 4.5 µmol/L
- Creatinine Mean percentage CFB [30]: 8.0%
- Creatinine Mean CFB [31]: 2.9 µmol/L
- Creatinine Mean percentage CFB [31]: 5.2%
- Creatinine Mean CFB [32]: 2.2 µmol/L
- Creatinine Mean percentage CFB [32]: 3.7%
- Creatinine Mean CFB [33]: 3.0 µmol/L
- Creatinine Mean percentage CFB [33]: 6.4%
- Creatinine Mean CFB [34]: 1.9 µmol/L
- Creatinine Mean percentage CFB [34]: 4.3%
- Creatinine Mean CFB [35]: 3.0 µmol/L
- Creatinine Mean percentage CFB [35]: 5.9%
